About 4,300 (3.1%) of roughly 140,000 compounds were called active. Inconclusive means that the source gave no clear call. Such entries were picked first, then a sample of the others.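 Rule for the calls: active = readout at or below -70, meaning at least 70% loss of cells showing the perinucleolar compartment, a nuclear body marking cancer cells; inconclusive = readout between -30 and a set limit; inactive = the rest.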
Test: High Content Assay for Compounds that inhibit the Assembly of the Perinucleolar Compartment;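 note: plate controls were DMSO wells for no effect and camptothecin positive control wells for full effect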
Details: PC3M PTB-GFP, PNC prevalence imaging, 16 h; at 10 µM; active compounds read low
In short: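 Read-out is percentage of cells bearing a perinucleolar compartment, from automated 20x imaging of fixed, Hoechst-stained PC3M PTB-GFP cells. Cells were seeded 4 h, then exposed 16 h to compound (23 nl of library stock) in duplicate plates.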

| Compound | activity change (PNC), negative = inhibition |
| --- | --- |
| CCN(CC)S(=O)(=O)c1cccc(-c2nnc(SCc3nnc(-c4cccs4)o3)n2N)c1 | inconclusive: -47.3% |
| COc1ccc(/C=C2\NC(=S)N(CC3CCCO3)C2=O)c(OC)c1 (stereo not drawn) | inactive: 44.6% |
| O=C(NCCN1CCOCC1)c1ccc(Cl)c(S(=O)(=O)N2CCCCCC2)c1 | inconclusive: -50.8% |
| Cc1ccc(CNC(=O)c2cc3c(-c4ccc(Cl)cc4)nn(C)c3s2)o1 | inactive: 9.15% |
| CN1CCN(C2=C(Cl)C(=O)N(c3cccc(Cl)c3)C2=O)CC1 | inactive: 30.4% |
| COC(=O)C1C(=O)C2=C(CC1C)NC(C)=C(C(=O)OC1CCCCC1)C2c1ccc(N(C)C)cc1 (stereo not drawn) | active: -100% |
| Cc1ncc([N+](=O)[O-])n1CCOC(=O)NC(NCc1ccccc1Cl)C(Cl)(Cl)Cl (stereo not drawn) | inactive: 28.2% |
| COC(=O)c1c(-c2cccs2)csc1NC(=O)c1cccnc1 | active: -100% |
| COc1ccccc1N1CCN(C(=O)c2cc(-c3cccc(Cl)c3)on2)CC1 | inactive: -25% |
| COc1ccc(NC2=C(Cl)C(=O)N(CCc3ccccc3)C2=O)cc1 | inconclusive: -51.6% |
| COc1ccccc1N1CCN(C(=O)c2ccc3c(=O)n(Cc4ccco4)c(=S)[nH]c3c2)CC1 | inconclusive: -51.1% |
| Cc1cc2nc(CCN(Cc3cccnc3)C(=S)Nc3ccccc3)[nH]c2cc1C | active: -86.4% |
| O=C(CCSc1ccccn1)Nc1ccc(Br)cc1 | inconclusive: -45.2% |
| CCC(c1nnnn1C1CCCC1)N(Cc1cccs1)Cc1cc2cc(C)ccc2[nH]c1=O (stereo not drawn) | inconclusive: -34.4% |
| C[N+]1(CCOS(=O)C23CC4CC(CC(C4)C2)C3)CCOCC1 (stereo not drawn) | inconclusive: -30.4% |
| Cc1cccc(NC(=O)CN2NS(=O)(=O)c3ccccc3C2=O)c1 | inconclusive: -38.6% |
| CCOc1ccc(CCNC(=O)C2CCCN(C(=O)N(C)C)C2)cc1OCC (stereo not drawn) | active: -100% |
| Cc1nc(-c2cccc(NC(=O)c3cc4cc(Br)ccc4oc3=O)c2)cs1 | inconclusive: -36.7% |
| Cc1ccc(S(=O)(=O)N2CCC(=O)N(CCO)CC2)cc1 | inconclusive: -74.7% |
| O=C(Cc1cn(Cc2cccc(Cl)c2)c2ccccc12)N1CCCC1 | inactive: -5.19% |
| O=C(c1csc2c1CCCC2)N1CCN(c2ccccc2)CC1 | active: -80% |
| Cc1ccc(NC(=O)NNC(=O)C2CC(c3cccnc3)=NO2)cc1 (stereo not drawn) | inconclusive: -34.5% |

| Compound | activity change (PNC), negative = inhibition |
| --- | --- |
| Cc1ccc(NC(=O)Cn2c(=O)n(CCCCC(=O)NCc3ccco3)c(=O)c3ccccc32)cc1 | inconclusive: -39.8% |
| O=C(O)CN1C(=O)c2ccc(Oc3cccc4c3C(=O)N(CC(=O)O)C4=O)cc2C1=O | inconclusive: -61.9% |
| CN(CCO)C(=O)CCC(=O)Nc1ccc(S(N)(=O)=O)cc1 | active: -127% |
| CC(=O)c1cccc(NC(=O)N2CCCC2C(=O)Nc2cccc(C)c2)c1 (stereo not drawn) | inactive: 12.8% |
| COC(=O)c1ccc2c(=O)n(CCO)c(=S)[nH]c2c1 | inconclusive: -48.8% |
| CCOC(=O)C1=C(CSc2nc(C)cc(C)c2C#N)OC(N)=C(C#N)C1c1cccs1 (stereo not drawn) | inconclusive: -48.2% |
| COc1ccc(C(=O)N2C(=S)NC(=O)/C2=C\c2ccc(C)cc2)cc1 | inconclusive: -60.8% |
| CC(C)(C)c1cnnn1-c1ccc(NC(=O)c2ccc3c(c2)OCO3)cc1 | inactive: 3.23% |
| O=C(OC1CCOC1=O)c1cc(-c2ccc(Br)cc2)nc2ccccc12 (stereo not drawn) | active: -119% |
| Cc1oc(-c2ccccc2F)nc1CSCC(=O)NCc1ccc2c(c1)OCO2 | inconclusive: -33.1% |
| CCOC(=O)N1CCC(Nc2cc(C)nc3c(-c4ccccc4OC)c(C)nn23)CC1 | inconclusive: -43.2% |
| CC(C)=C1C2CCC1C(C(=O)NCc1ccccc1)C2C(=O)O (stereo not drawn) | inconclusive: -49% |
| CN1CCN(C(=O)c2ccccc2NC(=O)c2cccs2)CC1 | inconclusive: -40.7% |
| O=C(N/N=C/c1ccc(N2CCOCC2)c([N+](=O)[O-])c1)c1ccc(F)cc1 | inactive: 8.51% |
| Cc1c2cccn2cc[n+]1C | inactive: 4.24% |
| COc1ccc(OC)c(N(CC(=O)Nc2cccnc2)S(C)(=O)=O)c1 | inactive: 18% |
| COc1ccc(OCC(=O)Nc2cccc(C(=O)Nc3ccccc3C(=O)O)c2)cc1 | inconclusive: -30.1% |
| O=C1CC(c2cccc(F)c2)SC(N(c2ccccc2)c2ccccc2)=N1 (stereo not drawn) | inactive: 36.7% |
| C=CCOc1ccc(C2C(C(=O)c3ccco3)=C(O)C(=O)N2CCCN(CC)CC)cc1 (stereo not drawn) | inactive: 30.4% |
| COC(=O)c1ccc(C2/C(=C(/O)c3ccc(OC)cc3)C(=O)C(=O)N2c2cc(C)on2)cc1 (stereo not drawn) | inconclusive: -38.1% |
| Cn1c(=O)oc2cc(S(=O)(=O)N3CCCC(C(=O)Nc4nccs4)C3)ccc21 (stereo not drawn) | inconclusive: -40.5% |

Four neighbouring compounds out of the list so far:

| Compound | activity change (PNC), negative = inhibition |
| --- | --- |
| CCOC(=O)C1=C(CSc2nc(C)cc(C)c2C#N)OC(N)=C(C#N)C1c1cccs1 (stereo not drawn) | inconclusive: -48.2% |
| COc1ccc(C(=O)N2C(=S)NC(=O)/C2=C\c2ccc(C)cc2)cc1 | inconclusive: -60.8% |
| CC(C)(C)c1cnnn1-c1ccc(NC(=O)c2ccc3c(c2)OCO3)cc1 | inactive: 3.23% |
| O=C(OC1CCOC1=O)c1cc(-c2ccc(Br)cc2)nc2ccccc12 (stereo not drawn) | active: -119% |
